From the supplement of paper PMC4840960 come the findings set out here.

Where a name gives a salt, the structure may show the parent alone. ± gives the standard deviation of the averaged measurements. The list shows a part of the results. Baselines shift from plate to plate; read single values as rough. Bounds are passed on as bounds.

One assay deals with E18 rat cortical neuron-glia co-culture. The assay can be described thus: total nuclei (DAPI) / Olig2+ nuclei (ratio); higher = more depletion of OPC/OL lineage cells. The note with it: 1 µM; treatment time: 8 days (DIV5-DIV13).
`C[C@H](CS)C(=O)N1CCC[C@H]1C(=O)O` [Captopril]: the total nuclei turned out to be 2.77.

As to `Cc1nc2n(c(=O)c1CCN1CCC(c3noc4cc(F)ccc34)CC1)CCCC2` [Risperidone], the total nuclei is 2.83.

With `CC(=O)OCC(CCn1cnc2cnc(N)nc21)COC(C)=O` [Famciclovir], the total nuclei worked out at 3.48.

As for `Cc1cc(NS(=O)(=O)c2ccc(N)cc2)no1` [Sulfamethoxazole], the total nuclei turned out to be 2.9.

Regarding `Clc1ccccc1C(c1ccccc1)(c1ccccc1)n1ccnc1` [Clotrimazole], the total nuclei stood at 3.62.

Regarding `CN(CCCN1c2ccccc2CCc2ccccc21)CC(=O)c1ccc(Cl)cc1` [Lofepramine], the total nuclei was found to be 3.8.

As for `CCN(CC)CCOc1ccc(C(=C(Cl)c2ccccc2)c2ccccc2)cc1` [Clomiphene], the total nuclei turned out to be 2.8.

For the compound `C/C(=C\C(=O)OCCCCCCCCC(=O)O)C[C@@H]1OC[C@H](C[C@@H]2O[C@H]2[C@@H](C)[C@H](C)O)[C@@H](O)[C@H]1O` [Mupirocin], the total nuclei is 3.94.

Take `CCN(CC)CC1CCCCN1CC(=O)N1c2ccccc2C(=O)Nc2cccnc21` (configuration not stated) [Otenzepad]: the total nuclei stood at 2.66.

Turning to `CC(=O)NCCCCCCNC(C)=O` [Hexamethylene bisacetamide], the total nuclei is 3.14.

On to `CC1(C)S[C@@H]2[C@H](NC(=O)[C@H](N)c3ccccc3)C(=O)N2[C@H]1C(=O)O` [Ampicillin], for which the total nuclei worked out at 4.01.

With `C#C[C@]1(OC(C)=O)CC[C@H]2[C@@H]3CCC4=CC(=O)CC[C@@H]4[C@H]3CC[C@@]21C` [Norethisterone acetate], the total nuclei was determined as 2.77.

`COc1c(N2C[C@@H]3CCCN[C@@H]3C2)c(F)cc2c(=O)c(C(=O)O)cn(C3CC3)c12` [Moxifloxacin]: the total nuclei turned out to be 3.

As to `CN1CCN(C2=Nc3ccccc3Oc3ccc(Cl)cc32)CC1` [Loxapine], the total nuclei is 3.2.

Turning to `COc1cc2nc(N3CCN(C(=O)c4ccco4)CC3)nc(N)c2cc1OC` [Prazosin], the total nuclei worked out at 3.3.

As to `O=c1c(O[C@@H]2O[C@H](CO)[C@H](O)[C@H](O)[C@H]2O)c(-c2ccc(O)c(O)c2)oc2cc(O)cc(O)c12` [Hyperoside], the total nuclei came to 7.55.

For the compound `CC1=C(/C=C/C(C)=C/C=C/C(C)=C/C(=O)O)C(C)(C)CCC1` [Retinoic Acid], the total nuclei was 3.87.

As to `Nc1nc(N)c2nc(-c3ccccc3)c(N)nc2n1` [Triamterene], the total nuclei worked out at 6.53.

Regarding `CCOC(=O)[C@H](CCc1ccccc1)N[C@@H](C)C(=O)N1[C@H](C(=O)O)C[C@@H]2CCC[C@@H]21` [Ramipril], the total nuclei was determined as 4.45 ± 0.64.

Consider `CN1CCC(=C2c3ccccc3C=Cc3ccccc32)CC1` [Cyproheptadine], for which the total nuclei was found to be 2.9.

Take `CC(C)NCC(O)COc1cccc2[nH]ccc12` (configuration not stated) [Pindolol]: the total nuclei is 4.

On to `Cc1cccc(C)c1OCC(C)N` (configuration not stated) [Mexiletine], for which the total nuclei came to 2.45.

Consider `COCC1=C(C(=O)OC(C)OC(=O)OC(C)C)N2C(=O)[C@@H](NC(=O)/C(=N\OC)c3csc(N)n3)[C@H]2SC1` (some centres not stated) [Cefpodoxime proxetil], for which the total nuclei is 4.12.

Take `C[C@H](N[C@@H](CCc1ccccc1)C(=O)O)C(=O)N1CCC[C@H]1C(=O)O` [Enalaprilat]: the total nuclei stood at 2.74.

Still in this assay, the particulars now being: 5 µM; treatment time: 8 days (DIV5-DIV13).
`c1ccc(-c2ccc(C(c3ccccc3)n3ccnc3)cc2)cc1` (configuration not stated) [Bifonazole]: the total nuclei is 11.2.

Take `COC(=O)Nc1nc2cc(C(=O)c3ccc(F)cc3)ccc2[nH]1` [Flubendazole]: the total nuclei was over 40.

For the compound `CC(=O)NC[C@H]1CN(c2ccc(N3CCOCC3)c(F)c2)C(=O)O1` [linezolid], the total nuclei was 2.8.

As to `c1ccc2c(c1)CCCC2C1=NCCN1` (configuration not stated) [Tyzine], the total nuclei was determined as 4.

In the case of `CCN1CCN(c2cc3c(cc2F)c(=O)c(C(=O)O)cn3C2CC2)CC1` [Enrofloxacin], the total nuclei came out at 2.8.

Take `CC1CCN(CCCC(=O)c2ccc(F)cc2)CC1` [Melperone hydrochloride]: the total nuclei turned out to be 4.4.

`C[C@@](Cc1ccc(O)c(O)c1)(NN)C(=O)O` [Carbidopa]: the total nuclei was found to be 3.4.

With `COc1ccc(-c2cc(=O)c3c(OC)c(OC)c(OC)c(OC)c3o2)cc1OC` [Nobiletin], the total nuclei is 7.

On to `CCN(CC)CCOC(=O)c1ccc(N)cc1` [Procaine], for which the total nuclei amounted to 2.5.

In the case of `O=c1[nH]cnc2c1ncn2[C@H]1CC[C@@H](CO)O1` [2',3'-Dideoxyinosine], the total nuclei was determined as 3.3.

Regarding `COc1cc2nc(N3CCN(C(=O)C4COc5ccccc5O4)CC3)nc(N)c2cc1OC` (configuration not stated) [Doxazosin], the total nuclei was 2.8.

On to `CC[C@H](C)C(=O)O[C@H]1C[C@@H](C)C=C2C=C[C@H](C)[C@H](CC[C@@H]3C[C@@H](O)CC(=O)O3)[C@H]21` [Lovastatin], for which the total nuclei was determined as 24.3.

In the case of `Nc1nc(=O)c2nc(CNc3ccc(C(=O)N[C@@H](CCC(=O)O)C(=O)O)cc3)cnc2[nH]1` [Folic acid], the total nuclei was 3.7.

In the case of `N#Cc1ccc(C(c2ccc(C#N)cc2)n2cncn2)cc1` [letrozole], the total nuclei came out at 4.5.

`C[C@H](CS)C(=O)N1CCC[C@H]1C(=O)O` [Captopril]: the total nuclei worked out at 2.9.

For the compound `Cc1nc2n(c(=O)c1CCN1CCC(c3noc4cc(F)ccc34)CC1)CCCC2` [Risperidone], the total nuclei was found to be 2.9.

As for `CC(=O)OCC(CCn1cnc2cnc(N)nc21)COC(C)=O` [Famciclovir], the total nuclei stood at 4.5.

Consider `Cc1cc(NS(=O)(=O)c2ccc(N)cc2)no1` [Sulfamethoxazole], for which the total nuclei amounted to 2.9.

With `Clc1ccccc1C(c1ccccc1)(c1ccccc1)n1ccnc1` [Clotrimazole], the total nuclei came to 3.5.

For the compound `CN(CCCN1c2ccccc2CCc2ccccc21)CC(=O)c1ccc(Cl)cc1` [Lofepramine], the total nuclei was over 40.

As to `CCN(CC)CCOc1ccc(C(=C(Cl)c2ccccc2)c2ccccc2)cc1` [Clomiphene], the total nuclei was over 40.

For the compound `C/C(=C\C(=O)OCCCCCCCCC(=O)O)C[C@@H]1OC[C@H](C[C@@H]2O[C@H]2[C@@H](C)[C@H](C)O)[C@@H](O)[C@H]1O` [Mupirocin], the total nuclei came to 4.6.

`CCN(CC)CC1CCCCN1CC(=O)N1c2ccccc2C(=O)Nc2cccnc21` (configuration not stated) [Otenzepad]: the total nuclei was found to be 2.6.

`CC(=O)NCCCCCCNC(C)=O` [Hexamethylene bisacetamide]: the total nuclei was 3.4.

Turning to `CC1(C)S[C@@H]2[C@H](NC(=O)[C@H](N)c3ccccc3)C(=O)N2[C@H]1C(=O)O` [Ampicillin], the total nuclei was found to be 3.9.

As to `C#C[C@]1(OC(C)=O)CC[C@H]2[C@@H]3CCC4=CC(=O)CC[C@@H]4[C@H]3CC[C@@]21C` [Norethisterone acetate], the total nuclei is 2.9.

As to `COc1c(N2C[C@@H]3CCCN[C@@H]3C2)c(F)cc2c(=O)c(C(=O)O)cn(C3CC3)c12` [Moxifloxacin], the total nuclei amounted to 2.9.

For `CN1CCN(C2=Nc3ccccc3Oc3ccc(Cl)cc32)CC1` [Loxapine], the total nuclei is 3.3.

Regarding `COc1cc2nc(N3CCN(C(=O)c4ccco4)CC3)nc(N)c2cc1OC` [Prazosin], the total nuclei came out at 5.9.

On to `O=c1c(O[C@@H]2O[C@H](CO)[C@H](O)[C@H](O)[C@H]2O)c(-c2ccc(O)c(O)c2)oc2cc(O)cc(O)c12` [Hyperoside], for which the total nuclei is over 40.

With `CC1=C(/C=C/C(C)=C/C=C/C(C)=C/C(=O)O)C(C)(C)CCC1` [Retinoic Acid], the total nuclei was determined as 4.1.

As to `Nc1nc(N)c2nc(-c3ccccc3)c(N)nc2n1` [Triamterene], the total nuclei came out at 25.8.

As to `CCOC(=O)[C@H](CCc1ccccc1)N[C@@H](C)C(=O)N1[C@H](C(=O)O)C[C@@H]2CCC[C@@H]21` [Ramipril], the total nuclei came to 4.35 ± 0.49.

Take `CN1CCC(=C2c3ccccc3C=Cc3ccccc32)CC1` [Cyproheptadine]: the total nuclei was determined as 3.2.

Turning to `CC(C)NCC(O)COc1cccc2[nH]ccc12` (configuration not stated) [Pindolol], the total nuclei stood at 4.4.

For the compound `Cc1cccc(C)c1OCC(C)N` (configuration not stated) [Mexiletine], the total nuclei was 2.5.

As to `COCC1=C(C(=O)OC(C)OC(=O)OC(C)C)N2C(=O)[C@@H](NC(=O)/C(=N\OC)c3csc(N)n3)[C@H]2SC1` (some centres not stated) [Cefpodoxime proxetil], the total nuclei turned out to be 5.2.

With `C[C@H](N[C@@H](CCc1ccccc1)C(=O)O)C(=O)N1CCC[C@H]1C(=O)O` [Enalaprilat], the total nuclei came to 2.7.
